Laboratory results from PubChem BioAssay AID258 (DTP/NCI, 2004).
The list does not hold the whole screen: it gathers tests that were run many times, whatever their T/C, doses with no T/C, and many T/C values between a quarter and a half above the control. Other doses and runs of a compound stand elsewhere. T/C is the treated group as % of the vehicle group. Some entries give survivors of the animals treated and no T/C: the source files T/C as zero there, which appears to mark a toxic dose or a test without result, not a measured value. Some doses without a T/C left all or most animals alive at the check, yet need not have been tolerated: survival well below the control is almost never listed, so the zero probably covers shortened survival too. Counts of survivors are from the toxicity check (mostly the fifth day) where no day follows; animals may have died later. Schedule codes are those of the source, read here as Q, the interval in days (D) or hours (H), X, the number of doses. Some entries were tested several times; the values are given in rising order. Some schedules carry Z or #; the key to these is not given. Signs of the kind (2×) count equal records among those shown. For survival time, the PubChem record calls one and a half times the control and up active, and a quarter to a half above the control has no call in these data; cut-offs in other NCI protocols can differ. Some T/C values carry the count of animals alive at the toxicity check (mostly the fifth day); where none is given, no animal had died by that day.

System: CD2F1 mice, L1210 leukemia sc, survival T/C
Assay: NCI In Vivo Anticancer Drug Screen. Data for tumor model L1210 Leukemia (subcutaneous) in CD2F1 (CDF1) mice
Conditions: T/C endpoint: median survival time, higher T/C = longer survival
Method in brief: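 T/C ratio: treated-group survival or tumor size over vehicle-control group measurement, in mice carrying transplanted tumors.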

[1] = dose: 65.0 mg/kg/injection, schedule: Q01DX Z (sc), vehicle: methylcellulose (MC)
[2] = dose: 108.0 mg/kg/injection, schedule: Q01DX Z (sc), vehicle: methylcellulose (MC)
[3] = dose: 180.0 mg/kg/injection, schedule: Q01DX Z (sc), vehicle: methylcellulose (MC)
[4] = dose: 8.4 mg/kg/injection, schedule: Q01DX Z (sc), vehicle: methylcellulose (MC)
[5] = dose: 14.0 mg/kg/injection, schedule: Q01DX Z (sc), vehicle: methylcellulose (MC)
[6] = dose: 23.0 mg/kg/injection, schedule: Q01DX Z (sc), vehicle: methylcellulose (MC)
[7] = dose: 39.0 mg/kg/injection, schedule: Q01DX Z (sc), vehicle: methylcellulose (MC)
[8] = dose: 12.5 mg/kg/injection, schedule: Q01DX009 (ip), vehicle: Klucel (hydroxypropylcellulose) (HPC)
[9] = dose: 833.0 mg/kg/injection, schedule: Q01DX Z (sc), vehicle: methylcellulose (MC)

## N#[N+]c1cnc([O-])[nH]c1=O
dose: 23.0 mg/kg/injection, schedule: Q01DX Z (sc), vehicle: other
  survivor count: 5 of 8
[1]
  survivor count: 0 of 8
[2]
  survivor count: 0 of 8
dose: 108.0 mg/kg/injection, schedule: Q01DX Z (sc), vehicle: other
  survivor count: 5 of 8
[3]
  survivor count: 0 of 8
dose: 180.0 mg/kg/injection, schedule: Q01DX Z (sc), vehicle: other
  survivor count: 0 of 8
dose: 300.0 mg/kg/injection, schedule: Q01DX Z (sc), vehicle: methylcellulose (MC)
  survivor count: 0 of 8
dose: 300.0 mg/kg/injection, schedule: Q01DX Z (sc), vehicle: other
  survivor count: 0 of 8

## Nc1nc2ncn(O)c2c(=O)[nH]1
dose: 34.72 mg/kg/injection, schedule: Q01DX009 (ip), vehicle: other
  survivor count: 6 of 6

## COC12C(COC(N)=O)C3=C(C(=O)C(C)=C(N)C3=O)N1CC1C2N1C (stereo not given)
dose: 8.0 mg/kg/injection, schedule: Q01DX009 (ip), vehicle: saline
  T/C: 128 % of control
dose: 30.0 mg/kg/injection, schedule: Q01DX009 (ip), vehicle: saline
  survivor count: 10 of 10
dose: 32.0 mg/kg/injection, schedule: Q01DX009 (ip), vehicle: saline
  survivor count: 10 of 10
dose: 60.0 mg/kg/injection, schedule: Q01DX009 (ip), vehicle: saline
  survivor count: 6 of 10

## Nc1nc2c(c(=O)[nH]1)NC(CCNc1ccc(C(=O)NC(CCC(=O)O)C(=O)O)cc1)CN2 (stereo not given)
dose: 100.0 mg/kg/injection, schedule: Q03HX Z (ip), vehicle: other
  T/C: 130 % of control
dose: 200.0 mg/kg/injection, schedule: Q01DX Z (ip), vehicle: other, evaluated on day 30
  T/C: 140 % of control
dose: 200.0 mg/kg/injection, schedule: Q01DX Z (ip), vehicle: other, evaluated on day 50
  T/C: 130 % of control
dose: 200.0 mg/kg/injection, schedule: Q03HX Z (ip), vehicle: other
  T/C: 130 % of control [7 of 8 alive]
dose: 400.0 mg/kg/injection, schedule: Q04DX Z (ip), vehicle: other
  T/C: 125 % of control
dose: 800.0 mg/kg/injection, schedule: Q01DX Z (ip), vehicle: other
  survivor count: 4 of 8
dose: 800.0 mg/kg/injection, schedule: Q04DX Z (ip), vehicle: other
  T/C: 130 % of control [6 of 8 alive]
dose: 1600.0 mg/kg/injection, schedule: Q01DX Z (ip), vehicle: other
  survivor count: 10 of 10

## O=C(Nc1ccccc1)c1c(O)[nH]c(=S)[nH]c1=O
dose: 18.8 mg/kg/injection, schedule: Q03HX008 (ip), vehicle: other
  T/C: 137 % of control
dose: 30.0 mg/kg/injection, schedule: Q01DX005 (ip), vehicle: other
  T/C: 130 and 131 % of control
dose: 67.0 mg/kg/injection, schedule: Q01DX001 (ip), vehicle: other
  T/C: 137 and 144 % of control
dose: 67.5 mg/kg/injection, schedule: Q01DX005 (ip), vehicle: other
  survivor count: 2 of 10 on day 7 and 3 of 9
dose: 100.0 mg/kg/injection, schedule: Q01DX001 (ip), vehicle: other
  survivor count: 5 of 10 and 6 of 10 on day 7
dose: 101.1 mg/kg/injection, schedule: Q01DX005 (ip), vehicle: other
  survivor count: 0 of 10 and 1 of 10 on day 7

## CCN=c1cc2oc3cc(NCC)c(C)cc3c(-c3ccccc3C(=O)OCC)c-2cc1C
dose: 2.5 mg/kg/injection, schedule: Q01DX009 (ip), vehicle: water
  survivor count: 1 of 10
dose: 5.0 mg/kg/injection, schedule: Q01DX009 (ip), vehicle: water
  survivor count: 1 of 10
dose: 5.0 mg/kg/injection, schedule: Q01DX009 (sc), vehicle: water
  survivor count: 1 of 10
dose: 10.0 mg/kg/injection, schedule: Q01DX009 (ip), vehicle: water
  survivor count: 0 of 10
dose: 10.0 mg/kg/injection, schedule: Q01DX009 (sc), vehicle: water
  survivor count: 0 of 10 and 6 of 10
dose: 20.0 mg/kg/injection, schedule: Q01DX009 (ip), vehicle: water
  survivor count: 0 of 10
dose: 20.0 mg/kg/injection, schedule: Q01DX009 (sc), vehicle: water
  survivor count: 0 of 10 (2×)
dose: 40.0 mg/kg/injection, schedule: Q01DX009 (sc), vehicle: water
  survivor count: 0 of 10

## COc1cc2c(c(OC)c1OC)-c1ccc(O)cc1[C@@H](NC(C)=O)CC2
[4]
  survivor count: 4 of 10
[5]
  survivor count: 1 of 10
[6]
  survivor count: 3 of 10
[7]
  survivor count: 5 of 10
[1]
  survivor count: 4 of 10

## [Cl][Pt+2][Cl].[NH-]CC1(C[NH-])CCC1
dose: 0.78 mg/kg/injection, schedule: Q01DX009 (ip), vehicle: Klucel (hydroxypropylcellulose) (HPC), evaluated on day 30
  T/C: 104 and 108 % of control
dose: 0.78 mg/kg/injection, schedule: Q01DX009 (ip), vehicle: Klucel (hydroxypropylcellulose) (HPC), evaluated on day 60
  T/C: 102 % of control
dose: 1.56 mg/kg/injection, schedule: Q01DX009 (ip), vehicle: Klucel (hydroxypropylcellulose) (HPC), evaluated on day 30
  T/C: 112 and 136 % of control
dose: 1.56 mg/kg/injection, schedule: Q01DX009 (ip), vehicle: Klucel (hydroxypropylcellulose) (HPC), evaluated on day 60
  T/C: 112 % of control
dose: 3.13 mg/kg/injection, schedule: Q01DX009 (ip), vehicle: Klucel (hydroxypropylcellulose) (HPC)
  T/C: 132 and 146 % of control
dose: 6.25 mg/kg/injection, schedule: Q01DX009 (ip), vehicle: Klucel (hydroxypropylcellulose) (HPC), evaluated on day 30
  T/C: 105 and 159 % of control
dose: 6.25 mg/kg/injection, schedule: Q01DX009 (ip), vehicle: Klucel (hydroxypropylcellulose) (HPC), evaluated on day 60
  T/C: 188 % of control
[8]
  T/C: 97 % of control
  survivor count: 7 of 10 and 10 of 10

## N[C@H](C(=O)O)[C@@H]1CC(Cl)=NO1
dose: 4.0 mg/kg/injection, schedule: Q01DX009 (sc), vehicle: saline
  T/C: 146 % of control
dose: 8.0 mg/kg/injection, schedule: Q01DX009 (sc), vehicle: saline
  T/C: 149 % of control
dose: 16.0 mg/kg/injection, schedule: Q01DX009 (sc), vehicle: saline
  T/C: 147 % of control
dose: 32.0 mg/kg/injection, schedule: Q01DX009 (sc), vehicle: saline
  T/C: 131 % of control
dose: 64.0 mg/kg/injection, schedule: Q01DX009 (sc), vehicle: saline
  T/C: 128 % of control
dose: 128.0 mg/kg/injection, schedule: Q01DX009 (sc), vehicle: saline
  T/C: 128 % of control

## CC(=O)OCC(=O)[C@@]1(O)CC[C@H]2[C@@H]3CCC4=CC(=O)CC[C@]4(C)[C@@]3(F)[C@@H](O)C[C@@]21C
[2]
  survivor count: 3 of 10
[3]
  survivor count: 5 of 10
[9]
  survivor count: 6 of 10

## COc1cc([C@@H]2c3cc4c(c(O)c3C[C@H]3COC(=O)[C@@H]32)OCO4)cc(OC)c1O
dose: 5.0 mg/kg/injection, schedule: Q01DX Z (sc), vehicle: methylcellulose (MC)
  survivor count: 0 of 10
[4]
  survivor count: 3 of 10
[5]
  survivor count: 0 of 10
[6]
  survivor count: 3 of 10
[7]
  survivor count: 2 of 10
[1]
  survivor count: 1 of 10
[2]
  survivor count: 0 of 10

## C[C@]12CCC(=O)C=C1CC[C@@H]1[C@@H]2[C@@H](O)C[C@@]2(C)[C@H]1CC[C@]2(O)C(=O)CO
[2]
  survivor count: 4 of 10
[3]
  survivor count: 3 of 10
dose: 500.0 mg/kg/injection, schedule: Q01DX Z (sc), vehicle: methylcellulose (MC)
  survivor count: 3 of 10
[9]
  survivor count: 5 of 10

## CSCS(=O)C[C@H](CO)NC(=O)/C=C/c1c(C)[nH]c(=O)[nH]c1=O (stereo not given in full)
dose: 8.4 mg/kg/injection, schedule: Q01DX Z (sc), vehicle: saline
  survivor count: 0 of 8
